The text below walks through data of the supplement of paper PMC12819154, “High-throughput peptide-centric local stability assay extends protein–ligand identification to membrane proteins, tissues and bacteria” (Nature Structural & Molecular Biology, 2025).

Amino acid sequences for entries named in this document (tags omitted). A change or cut given only in a name is not applied to a line headed by its entry.
UniProt P35492: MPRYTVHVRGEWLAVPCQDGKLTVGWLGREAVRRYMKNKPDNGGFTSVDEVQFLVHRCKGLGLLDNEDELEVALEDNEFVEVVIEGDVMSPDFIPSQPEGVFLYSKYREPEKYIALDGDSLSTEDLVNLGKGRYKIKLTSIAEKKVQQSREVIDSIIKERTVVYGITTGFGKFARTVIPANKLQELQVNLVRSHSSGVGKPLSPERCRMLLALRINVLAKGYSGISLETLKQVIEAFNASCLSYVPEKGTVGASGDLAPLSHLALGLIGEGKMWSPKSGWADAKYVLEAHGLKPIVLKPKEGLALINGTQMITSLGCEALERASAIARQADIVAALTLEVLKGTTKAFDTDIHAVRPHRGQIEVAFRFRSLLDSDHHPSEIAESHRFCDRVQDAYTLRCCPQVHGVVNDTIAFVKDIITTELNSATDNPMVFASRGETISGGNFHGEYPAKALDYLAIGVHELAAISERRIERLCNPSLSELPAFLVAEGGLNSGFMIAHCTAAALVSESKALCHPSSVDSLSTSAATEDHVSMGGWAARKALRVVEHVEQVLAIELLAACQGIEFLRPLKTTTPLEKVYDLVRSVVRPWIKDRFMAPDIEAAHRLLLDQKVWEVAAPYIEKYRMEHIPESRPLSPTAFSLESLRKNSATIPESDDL
UniProt P50396: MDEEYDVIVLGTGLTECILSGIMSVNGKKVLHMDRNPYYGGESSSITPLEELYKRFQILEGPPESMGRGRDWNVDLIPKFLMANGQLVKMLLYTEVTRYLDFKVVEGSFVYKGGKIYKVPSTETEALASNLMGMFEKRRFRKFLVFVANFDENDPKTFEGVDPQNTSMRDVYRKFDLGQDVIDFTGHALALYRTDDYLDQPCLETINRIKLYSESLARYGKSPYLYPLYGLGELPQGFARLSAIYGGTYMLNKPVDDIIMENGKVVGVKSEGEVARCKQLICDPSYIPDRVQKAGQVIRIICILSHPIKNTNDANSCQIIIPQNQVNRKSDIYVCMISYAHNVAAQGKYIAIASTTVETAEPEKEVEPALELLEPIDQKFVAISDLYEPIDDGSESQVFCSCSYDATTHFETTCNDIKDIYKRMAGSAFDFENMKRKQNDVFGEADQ
UniProt P52825: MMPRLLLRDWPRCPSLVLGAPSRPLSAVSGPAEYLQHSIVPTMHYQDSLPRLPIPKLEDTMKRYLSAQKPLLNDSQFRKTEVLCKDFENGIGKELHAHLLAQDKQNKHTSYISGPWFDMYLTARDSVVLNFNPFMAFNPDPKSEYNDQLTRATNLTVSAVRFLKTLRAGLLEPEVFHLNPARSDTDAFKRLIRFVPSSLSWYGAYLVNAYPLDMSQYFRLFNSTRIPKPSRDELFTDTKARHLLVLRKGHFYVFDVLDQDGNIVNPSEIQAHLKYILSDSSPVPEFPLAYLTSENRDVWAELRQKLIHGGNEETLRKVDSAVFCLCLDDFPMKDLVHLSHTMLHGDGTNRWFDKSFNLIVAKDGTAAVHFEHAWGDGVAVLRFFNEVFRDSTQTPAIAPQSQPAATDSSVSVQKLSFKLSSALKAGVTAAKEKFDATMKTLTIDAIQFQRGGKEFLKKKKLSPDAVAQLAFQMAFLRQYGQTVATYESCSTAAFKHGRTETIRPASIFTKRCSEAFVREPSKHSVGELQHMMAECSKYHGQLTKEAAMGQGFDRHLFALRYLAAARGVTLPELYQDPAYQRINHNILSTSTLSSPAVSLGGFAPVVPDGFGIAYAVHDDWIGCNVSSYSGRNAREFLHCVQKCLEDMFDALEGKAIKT
UniProt P39039: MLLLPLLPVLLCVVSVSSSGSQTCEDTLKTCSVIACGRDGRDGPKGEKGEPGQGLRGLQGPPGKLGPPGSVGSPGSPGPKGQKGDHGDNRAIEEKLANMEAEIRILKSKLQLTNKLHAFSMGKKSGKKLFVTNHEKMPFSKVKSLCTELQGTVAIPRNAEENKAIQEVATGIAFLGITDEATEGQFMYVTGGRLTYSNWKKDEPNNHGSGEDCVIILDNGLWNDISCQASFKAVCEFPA
UniProt P50518, whole entry: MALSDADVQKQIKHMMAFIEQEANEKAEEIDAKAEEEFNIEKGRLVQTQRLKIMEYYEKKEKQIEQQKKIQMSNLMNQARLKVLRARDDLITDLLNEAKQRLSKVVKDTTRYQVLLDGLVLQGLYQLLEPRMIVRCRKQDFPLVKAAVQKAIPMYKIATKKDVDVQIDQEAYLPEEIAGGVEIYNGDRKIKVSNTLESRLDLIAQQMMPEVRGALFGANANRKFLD
UniProt P55104: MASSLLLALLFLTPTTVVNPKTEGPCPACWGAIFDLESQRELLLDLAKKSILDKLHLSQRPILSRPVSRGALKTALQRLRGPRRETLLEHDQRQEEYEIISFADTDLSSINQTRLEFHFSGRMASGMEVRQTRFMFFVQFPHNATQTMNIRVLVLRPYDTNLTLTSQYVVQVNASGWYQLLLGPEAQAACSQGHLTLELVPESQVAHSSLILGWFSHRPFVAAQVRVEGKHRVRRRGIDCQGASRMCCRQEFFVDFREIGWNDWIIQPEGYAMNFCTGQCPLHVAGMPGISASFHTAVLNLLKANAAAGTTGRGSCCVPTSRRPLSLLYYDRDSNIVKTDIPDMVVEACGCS
UniProt P54822: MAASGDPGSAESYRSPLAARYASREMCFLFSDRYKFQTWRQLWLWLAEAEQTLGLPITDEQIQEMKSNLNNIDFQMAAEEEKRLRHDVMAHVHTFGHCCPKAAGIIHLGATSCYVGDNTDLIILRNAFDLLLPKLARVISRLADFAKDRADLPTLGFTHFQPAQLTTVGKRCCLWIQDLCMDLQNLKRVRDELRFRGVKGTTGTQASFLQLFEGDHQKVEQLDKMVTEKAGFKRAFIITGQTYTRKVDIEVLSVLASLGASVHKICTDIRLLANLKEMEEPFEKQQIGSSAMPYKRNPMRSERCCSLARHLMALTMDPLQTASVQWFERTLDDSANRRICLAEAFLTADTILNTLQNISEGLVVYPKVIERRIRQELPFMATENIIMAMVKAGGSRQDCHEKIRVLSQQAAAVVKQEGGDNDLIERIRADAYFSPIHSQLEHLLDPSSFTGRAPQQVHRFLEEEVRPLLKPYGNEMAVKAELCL
UniProt P46978: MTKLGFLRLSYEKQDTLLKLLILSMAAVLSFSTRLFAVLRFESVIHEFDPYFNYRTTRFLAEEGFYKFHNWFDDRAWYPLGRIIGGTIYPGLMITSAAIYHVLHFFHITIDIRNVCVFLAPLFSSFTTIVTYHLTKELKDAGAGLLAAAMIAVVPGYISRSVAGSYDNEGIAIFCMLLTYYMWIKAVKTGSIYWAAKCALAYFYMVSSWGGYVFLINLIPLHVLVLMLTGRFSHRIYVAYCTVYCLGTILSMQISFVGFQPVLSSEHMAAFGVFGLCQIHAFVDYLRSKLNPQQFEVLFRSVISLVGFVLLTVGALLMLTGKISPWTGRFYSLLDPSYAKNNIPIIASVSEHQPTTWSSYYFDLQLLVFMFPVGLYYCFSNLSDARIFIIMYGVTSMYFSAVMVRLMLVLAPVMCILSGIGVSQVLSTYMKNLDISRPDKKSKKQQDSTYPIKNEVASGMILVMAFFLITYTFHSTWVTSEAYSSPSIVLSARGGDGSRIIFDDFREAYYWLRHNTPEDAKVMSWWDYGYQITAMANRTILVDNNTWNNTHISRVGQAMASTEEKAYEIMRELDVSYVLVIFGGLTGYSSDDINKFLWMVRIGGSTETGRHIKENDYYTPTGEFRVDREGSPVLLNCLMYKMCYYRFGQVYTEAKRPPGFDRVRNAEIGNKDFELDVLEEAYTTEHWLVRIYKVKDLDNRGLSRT
UniProt P56371: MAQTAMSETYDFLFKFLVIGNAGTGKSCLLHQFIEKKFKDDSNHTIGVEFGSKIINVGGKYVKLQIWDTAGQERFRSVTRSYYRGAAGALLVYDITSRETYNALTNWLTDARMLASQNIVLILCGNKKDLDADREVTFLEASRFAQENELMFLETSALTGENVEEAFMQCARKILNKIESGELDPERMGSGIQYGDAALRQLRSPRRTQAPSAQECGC
UniProt P53395, whole entry: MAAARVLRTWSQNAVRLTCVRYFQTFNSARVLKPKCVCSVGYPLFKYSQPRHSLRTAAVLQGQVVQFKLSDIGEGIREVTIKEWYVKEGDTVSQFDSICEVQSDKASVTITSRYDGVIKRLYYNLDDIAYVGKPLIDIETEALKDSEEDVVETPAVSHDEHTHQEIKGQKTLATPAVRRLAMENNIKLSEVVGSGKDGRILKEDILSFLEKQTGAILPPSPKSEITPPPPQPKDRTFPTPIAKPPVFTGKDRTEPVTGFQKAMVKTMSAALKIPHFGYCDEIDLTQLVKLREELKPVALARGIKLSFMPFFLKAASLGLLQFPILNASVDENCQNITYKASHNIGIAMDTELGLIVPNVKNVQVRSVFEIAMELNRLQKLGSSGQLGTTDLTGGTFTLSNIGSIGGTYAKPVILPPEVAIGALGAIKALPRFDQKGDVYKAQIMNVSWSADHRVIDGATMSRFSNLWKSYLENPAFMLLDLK
UniProt P29319: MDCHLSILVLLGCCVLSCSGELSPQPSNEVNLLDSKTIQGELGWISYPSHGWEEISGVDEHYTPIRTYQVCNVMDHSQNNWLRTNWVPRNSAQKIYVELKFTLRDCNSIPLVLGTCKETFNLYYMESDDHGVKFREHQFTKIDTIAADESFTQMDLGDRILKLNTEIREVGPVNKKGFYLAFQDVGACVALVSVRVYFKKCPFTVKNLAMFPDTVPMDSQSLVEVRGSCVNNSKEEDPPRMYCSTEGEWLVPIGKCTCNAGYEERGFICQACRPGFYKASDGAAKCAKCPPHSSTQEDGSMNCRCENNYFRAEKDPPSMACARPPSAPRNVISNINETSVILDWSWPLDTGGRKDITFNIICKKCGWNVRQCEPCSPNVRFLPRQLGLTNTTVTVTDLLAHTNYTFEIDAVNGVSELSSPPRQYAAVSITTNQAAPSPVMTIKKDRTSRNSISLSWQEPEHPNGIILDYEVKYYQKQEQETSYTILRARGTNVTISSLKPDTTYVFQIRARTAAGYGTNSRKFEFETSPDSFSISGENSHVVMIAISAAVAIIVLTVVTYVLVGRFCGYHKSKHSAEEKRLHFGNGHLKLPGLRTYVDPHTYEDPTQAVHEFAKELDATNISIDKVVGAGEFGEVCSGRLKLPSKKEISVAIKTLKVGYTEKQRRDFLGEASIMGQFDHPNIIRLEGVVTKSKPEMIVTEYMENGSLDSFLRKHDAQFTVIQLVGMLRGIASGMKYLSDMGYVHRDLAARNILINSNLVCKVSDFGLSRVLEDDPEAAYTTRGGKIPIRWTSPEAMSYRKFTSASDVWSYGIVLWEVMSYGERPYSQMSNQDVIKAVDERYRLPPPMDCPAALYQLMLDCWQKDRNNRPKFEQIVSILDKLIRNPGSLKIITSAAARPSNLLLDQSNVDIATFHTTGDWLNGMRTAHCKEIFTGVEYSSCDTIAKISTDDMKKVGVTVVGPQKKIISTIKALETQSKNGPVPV
UniProt P48771: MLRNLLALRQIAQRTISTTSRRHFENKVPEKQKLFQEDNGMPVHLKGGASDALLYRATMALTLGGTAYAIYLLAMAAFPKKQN
UniProt P32921: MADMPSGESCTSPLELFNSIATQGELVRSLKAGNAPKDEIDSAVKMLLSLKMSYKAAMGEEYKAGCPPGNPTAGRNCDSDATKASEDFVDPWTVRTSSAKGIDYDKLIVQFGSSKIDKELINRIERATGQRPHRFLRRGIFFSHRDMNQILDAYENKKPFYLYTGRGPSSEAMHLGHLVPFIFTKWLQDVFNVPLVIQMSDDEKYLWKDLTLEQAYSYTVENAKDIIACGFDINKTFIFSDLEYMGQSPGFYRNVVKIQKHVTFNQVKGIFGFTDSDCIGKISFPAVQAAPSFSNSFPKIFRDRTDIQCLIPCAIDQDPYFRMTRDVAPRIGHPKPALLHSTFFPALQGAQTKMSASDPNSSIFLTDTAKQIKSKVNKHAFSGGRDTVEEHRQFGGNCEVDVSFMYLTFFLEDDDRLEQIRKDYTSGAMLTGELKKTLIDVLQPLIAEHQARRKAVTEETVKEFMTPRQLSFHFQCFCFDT
UniProt P47791: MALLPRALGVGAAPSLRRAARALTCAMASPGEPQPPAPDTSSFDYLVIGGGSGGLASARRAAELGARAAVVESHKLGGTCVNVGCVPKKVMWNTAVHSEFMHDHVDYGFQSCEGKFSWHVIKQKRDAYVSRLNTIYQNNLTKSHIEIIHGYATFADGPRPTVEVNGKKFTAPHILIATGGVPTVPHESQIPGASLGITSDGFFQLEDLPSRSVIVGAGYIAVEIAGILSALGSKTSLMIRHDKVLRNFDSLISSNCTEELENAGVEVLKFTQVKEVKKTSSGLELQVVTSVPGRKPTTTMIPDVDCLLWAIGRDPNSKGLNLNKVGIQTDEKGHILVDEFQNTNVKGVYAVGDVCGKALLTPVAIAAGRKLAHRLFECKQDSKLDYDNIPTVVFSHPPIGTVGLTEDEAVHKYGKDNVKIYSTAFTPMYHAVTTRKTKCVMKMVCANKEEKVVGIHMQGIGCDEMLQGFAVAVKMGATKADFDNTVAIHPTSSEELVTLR

Some of the results follow. Small differences around the control level are noise.

Compound in the assay: CN[C@@H]1C[C@H]2O[C@@](C)([C@@H]1OC)n1c3ccccc3c3c4c(c5c6ccccc6n2c5c31)C(=O)NC4 [staurosporine]
Put plainly: log2 fold change of pooled soluble protein (PISA), ligand vs vehicle (log2 ratio); higher = more thermally stabilized. The note with it: ligand concentration: 20 uM; assay format: PISA pool 52.9/55.5/58.6 C.
With UniProt P30415, the “log2 fold change of pooled soluble protein” value (from here on “log2 fold change”) was -0.28. As for UniProt P35282, the figure is -0.152; as for UniProt P35492, -0.262; as for UniProt P35290, -0.278.

Take UniProt P50429: the “log2 fold change” value stood at 0.042.

On to UniProt P47963, for which the “log2 fold change” value is -0.124. As for UniProt P52503, the figure is 0.218; as for UniProt P50396, 0.228; as for UniProt P41105, -0.0104. The result for UniProt P52825 reads -0.122. As for UniProt P35585, the figure is -0.00789; as for UniProt P39039, -0.116.

With UniProt P50518, the “log2 fold change” value was -0.124. UniProt P47857: the “log2 fold change” value worked out at 0.0218. As for UniProt P55104, the “log2 fold change” value was determined as 0.131. With UniProt P54822, the “log2 fold change” value is -0.00278.

Turning to UniProt P39054, the “log2 fold change” value is -0.398. As to UniProt P40124, the “log2 fold change” value was -0.0269.

For UniProt P46978, the “log2 fold change” value came to 0.00805. The result for UniProt P35951 reads -0.0106; that for UniProt P56135, 0.184. As to UniProt P46471, the “log2 fold change” value was -0.0385.

On to UniProt P56371, for which the “log2 fold change” value was -0.15. For UniProt P53395, the “log2 fold change” value was -0.0877. Regarding UniProt P36552, the “log2 fold change” value was found to be 0.366. As for UniProt P53566, the figure is 0.112; as for UniProt P29319, 0.103. Take UniProt P50427: the “log2 fold change” value was -0.0462.

Turning to UniProt P29754, the “log2 fold change” value is -0.131.

Turning to UniProt P51175, the “log2 fold change” value came to 0.0718. As for UniProt P54276, the figure is 0.299; as for UniProt P48771, 0.215. With UniProt P32921, the “log2 fold change” value was -0.019. The result for UniProt P47791 reads -0.383.

With UniProt P55292, the “log2 fold change” value is -0.084. Take UniProt P55302: the “log2 fold change” value is -0.00452. The result for UniProt P35292 reads -0.0456.
